Assay results published in publication PMC10024440.
Results are given in words; binding and its absence hold for the method and conditions named. Binding seen in cells or lysates may run through a third protein. Some binding calls cover weakened binding; strength is not graded here.

The chains behind the UniProt entries cited, without tags or fusion partners.
UniProt P35222: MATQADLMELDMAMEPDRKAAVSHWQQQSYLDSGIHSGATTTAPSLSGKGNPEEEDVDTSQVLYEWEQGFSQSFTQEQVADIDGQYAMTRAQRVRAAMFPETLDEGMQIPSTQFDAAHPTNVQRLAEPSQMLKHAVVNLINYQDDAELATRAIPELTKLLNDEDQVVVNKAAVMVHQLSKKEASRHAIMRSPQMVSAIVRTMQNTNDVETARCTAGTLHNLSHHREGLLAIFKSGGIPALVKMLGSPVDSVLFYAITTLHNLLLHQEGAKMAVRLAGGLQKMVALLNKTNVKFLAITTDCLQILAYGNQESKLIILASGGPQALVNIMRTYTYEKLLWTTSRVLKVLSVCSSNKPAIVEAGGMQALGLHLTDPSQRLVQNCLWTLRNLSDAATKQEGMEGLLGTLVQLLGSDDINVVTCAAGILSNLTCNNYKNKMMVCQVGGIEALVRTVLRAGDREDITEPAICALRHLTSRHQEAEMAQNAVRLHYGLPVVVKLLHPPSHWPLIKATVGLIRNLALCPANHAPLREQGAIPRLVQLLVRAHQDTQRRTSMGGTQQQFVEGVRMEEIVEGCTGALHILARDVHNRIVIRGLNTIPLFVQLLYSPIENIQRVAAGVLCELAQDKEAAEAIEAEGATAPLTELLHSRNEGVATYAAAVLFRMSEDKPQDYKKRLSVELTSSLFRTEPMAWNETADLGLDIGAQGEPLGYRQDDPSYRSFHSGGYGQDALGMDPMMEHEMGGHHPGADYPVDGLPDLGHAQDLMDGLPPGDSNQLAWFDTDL

T1: cell division cycle and apoptosis regulator 1 (CCAR1) (human (endogenous in HCCLM3 and SK-Hep-1)) (UniProt Q8IX12)
T1 sequence: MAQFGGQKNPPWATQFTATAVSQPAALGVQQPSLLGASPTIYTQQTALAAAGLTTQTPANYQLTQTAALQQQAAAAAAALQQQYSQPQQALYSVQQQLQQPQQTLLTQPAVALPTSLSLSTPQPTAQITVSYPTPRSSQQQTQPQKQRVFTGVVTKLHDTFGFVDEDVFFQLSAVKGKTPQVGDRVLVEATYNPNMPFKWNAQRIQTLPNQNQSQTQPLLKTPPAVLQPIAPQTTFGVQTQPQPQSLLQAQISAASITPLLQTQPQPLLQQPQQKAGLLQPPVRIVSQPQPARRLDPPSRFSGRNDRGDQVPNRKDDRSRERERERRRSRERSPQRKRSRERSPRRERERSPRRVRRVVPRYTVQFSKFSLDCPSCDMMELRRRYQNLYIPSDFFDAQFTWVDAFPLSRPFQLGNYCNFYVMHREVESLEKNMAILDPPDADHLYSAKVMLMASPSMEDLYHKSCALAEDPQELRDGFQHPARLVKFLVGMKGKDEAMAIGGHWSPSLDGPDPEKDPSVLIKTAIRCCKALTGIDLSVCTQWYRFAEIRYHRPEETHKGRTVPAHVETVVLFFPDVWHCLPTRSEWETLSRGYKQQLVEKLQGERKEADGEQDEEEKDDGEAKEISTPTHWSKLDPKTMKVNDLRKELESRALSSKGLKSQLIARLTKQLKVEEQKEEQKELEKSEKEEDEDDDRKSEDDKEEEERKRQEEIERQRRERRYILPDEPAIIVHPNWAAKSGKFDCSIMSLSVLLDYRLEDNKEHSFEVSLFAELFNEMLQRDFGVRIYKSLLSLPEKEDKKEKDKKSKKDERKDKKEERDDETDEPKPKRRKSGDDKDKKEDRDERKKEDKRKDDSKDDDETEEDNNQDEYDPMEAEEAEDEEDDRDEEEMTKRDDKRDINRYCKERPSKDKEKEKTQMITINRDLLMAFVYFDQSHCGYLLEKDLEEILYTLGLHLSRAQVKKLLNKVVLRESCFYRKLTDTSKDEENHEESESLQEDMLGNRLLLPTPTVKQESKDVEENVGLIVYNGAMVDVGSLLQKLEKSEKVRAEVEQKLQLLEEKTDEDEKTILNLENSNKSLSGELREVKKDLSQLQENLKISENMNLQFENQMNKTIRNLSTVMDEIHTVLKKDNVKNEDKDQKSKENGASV


What was measured:
[1] = molecular target: T1, cell division cycle and apoptosis regulator 1 (CCAR1) (human (endogenous in HCCLM3 and SK-Hep-1)); assay: co-IP; extracts of HCCLM3 or SK-Hep-1 cells; endogenous proteins; precipitated with anti-β-catenin or anti-CCAR1 antibodies, detected by blot
[2] = molecular target: β-catenin (human (endogenous in HCCLM3 and SK-Hep-1)) (UniProt P35222); assay: as above

Row | binding [1] | binding [2] | Molecule
1 | binds | – | β-catenin (from UniProt P35222 1-781)
2 | – | binds | cell division cycle and apoptosis regulator 1 (CCAR1) (protein, UniProt Q8IX12 1-1150) MAQFGGQKNPPWATQFTATAVSQPAALGVQQPSLLGASPTIYTQQTALAAAGLTTQTPANYQLTQTAALQQQAAAAAAALQQQYSQPQQALYSVQQQLQQPQQTLLTQPAVALPTSLSLSTPQPTAQITVSYPTPRSSQQQTQPQKQRVFTGVVTKLHDTFGFVDEDVFFQLSAVKGKTPQVGDRVLVEATYNPNMPFKWNAQRIQTLPNQNQSQTQPLLKTPPAVLQPIAPQTTFGVQTQPQPQSLLQAQISAASITPLLQTQPQPLLQQPQQKAGLLQPPVRIVSQPQPARRLDPPSRFSGRNDRGDQVPNRKDDRSRERERERRRSRERSPQRKRSRERSPRRERERSPRRVRRVVPRYTVQFSKFSLDCPSCDMMELRRRYQNLYIPSDFFDAQFTWVDAFPLSRPFQLGNYCNFYVMHREVESLEKNMAILDPPDADHLYSAKVMLMASPSMEDLYHKSCALAEDPQELRDGFQHPARLVKFLVGMKGKDEAMAIGGHWSPSLDGPDPEKDPSVLIKTAIRCCKALTGIDLSVCTQWYRFAEIRYHRPEETHKGRTVPAHVETVVLFFPDVWHCLPTRSEWETLSRGYKQQLVEKLQGERKEADGEQDEEEKDDGEAKEISTPTHWSKLDPKTMKVNDLRKELESRALSSKGLKSQLIARLTKQLKVEEQKEEQKELEKSEKEEDEDDDRKSEDDKEEEERKRQEEIERQRRERRYILPDEPAIIVHPNWAAKSGKFDCSIMSLSVLLDYRLEDNKEHSFEVSLFAELFNEMLQRDFGVRIYKSLLSLPEKEDKKEKDKKSKKDERKDKKEERDDETDEPKPKRRKSGDDKDKKEDRDERKKEDKRKDDSKDDDETEEDNNQDEYDPMEAEEAEDEEDDRDEEEMTKRDDKRDINRYCKERPSKDKEKEKTQMITINRDLLMAFVYFDQSHCGYLLEKDLEEILYTLGLHLSRAQVKKLLNKVVLRESCFYRKLTDTSKDEENHEESESLQEDMLGNRLLLPTPTVKQESKDVEENVGLIVYNGAMVDVGSLLQKLEKSEKVRAEVEQKLQLLEEKTDEDEKTILNLENSNKSLSGELREVKKDLSQLQENLKISENMNLQFENQMNKTIRNLSTVMDEIHTVLKKDNVKNEDKDQKSKENGASV
